Experimental data from patent US11246877B2, “Nanoparticles for chemotherapy, targeted therapy, photodynamic therapy, immunotherapy, and any combination thereof” (The University of Chicago, priority 2016, dated 2022).

How the values were obtained:
Format in all cases: cell-based
A549 cells = assay: In vitro cytotoxicity against non-small cell lung cancer cells, MTS, 72 h; details: Homo sapiens
Description: H460 and A549 cells seeded on 96-well plates at a density of 2000 cells/well were treated with Zn/PTX and free PTX at various […] concentrations for 72 h. The cell viability was then detected by MTS assay (Promega, USA) and the IC50 values were calculated accordingly.

A2780 cells = assay: In vitro cytotoxicity in ovarian cancer cells, MTS, 72 h; details: A2780, 72 h, cisplatin concentration
Description: (§1) A2780, A2780/CDDP, and SKOV-3 cells were seeded into 96-well plate at 2000 cells/well for 24 h. Afterwards cells were treated with free DHA or Zn/DHA at various concentrations and incubated for another 72 h. The cell viability was then determined via MTS assay by microplate reader.
(§2) A2780, A2780/CDDP, and SKOV-3 cells were seeded into 96-well plate at 2000 cells/well for 24 h. Afterwards cells were treated with different formulations at various concentrations and incubated for another 72 h. The cell viability was then determined via MTS assay by microplate reader.

SKOV-3 cells = assay: as above; details: SKOV-3, 72 h, cisplatin concentration
Description: as §1, §2

Row | SMILES | IC50 (A549 cells) [µM] | IC50 (A2780 cells) [µM] | IC50 (SKOV-3 cells) [µM]
1 | CC(=O)O[C@H]1C(=O)[C@@]2(C)[C@H]([C@H](OC(=O)c3ccccc3)[C@]3(O)C[C@H](OC(=O)[C@H](O)[C@@H](NC(=O)c4ccccc4)c4ccccc4)C(C)=C1C3(C)C)[C@]1(OC(C)=O)CO[C@@H]1C[C@@H]2O [PTX, Paclitaxel] | 10.09 ± 0.06 | – | –
2 | N.N.[Cl][Pt][Cl] [Cisplatin, cisplatin] | – | 4.05 ± 0.74 | 35 ± 5.43
